Here are results for 30 compounds from PubChem BioAssay AID328 (DTP/NCI, 2004).

The list is a part of this screen's results and no random one: it gathers tests that were run many times, whatever their T/C, doses with no T/C, and many T/C values between a quarter and a half above the control. Other doses and runs of a compound stand elsewhere. T/C is the treated group as % of the vehicle group. Some doses have a count of surviving animals in place of a T/C: the source files T/C as zero there, which appears to mark a toxic dose or a test without result, not a measured value. Some doses without a T/C left all or most animals alive at the check, yet need not have been tolerated: survival well below the control is almost never listed, so the zero probably covers shortened survival too. Counts of survivors are from the toxicity check (mostly the fifth day) where no day follows; animals may have died later. Schedule codes are those of the source, read here as Q, the interval in days (D) or hours (H), X, the number of doses. Where survival is the endpoint, the PubChem record calls one and a half times the control and up active, and a quarter to a half above the control has no call in these data; cut-offs in other NCI protocols can differ. Some entries were tested several times; their values stand side by side, smallest first. Some T/C values are followed by the survivors on the day toxicity was checked, most often the fifth; without a count, all were alive then.

The experiment has as its system BDF1 mice, P388 leukemia ip, median survival T/C. As to the kind of experiment: NCI In Vivo Anticancer Drug Screen. Data for tumor model P388 Leukemia (intraperitoneal) in B6D2F1 (BDF1) mice. As to conditions: T/C endpoint: median survival time, higher T/C = longer survival. In outline: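 T/C = treated-group survival ÷ vehicle-control survival; tumour transplanted into mice before dosing.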

Where [1] appears, read: dose: 50.0 mg/kg/injection, schedule: Q01DX009 (ip), vehicle: Klucel (hydroxypropylcellulose) (HPC).
The mark [2] stands for this setting: dose: 100.0 mg/kg/injection, schedule: Q01DX009 (ip), vehicle: Klucel (hydroxypropylcellulose) (HPC).
[3] abbreviates: dose: 100.0 mg/kg/injection, schedule: Q04DX003 (ip), vehicle: saline with Tween-80.
[4] abbreviates: dose: 400.0 mg/kg/injection, schedule: Q04DX003 (ip), vehicle: saline with Tween-80.
The mark [5] stands for this setting: dose: 200.0 mg/kg/injection, schedule: Q01DX009 (ip), vehicle: saline.
[6] abbreviates: dose: 200.0 mg/kg/injection, schedule: Q04DX003 (ip), vehicle: Klucel (hydroxypropylcellulose) (HPC).
[7] abbreviates: dose: 400.0 mg/kg/injection, schedule: Q04DX003 (ip), vehicle: Klucel (hydroxypropylcellulose) (HPC).
Where [8] appears, read: dose: 200.0 mg/kg/injection, schedule: Q01DX009 (ip), vehicle: Klucel (hydroxypropylcellulose) (HPC).
Setting [9] is: dose: 200.0 mg/kg/injection, schedule: Q01DX009 (ip), vehicle: saline with Tween-80.
[10] abbreviates: dose: 12.5 mg/kg/injection, schedule: Q01DX009 (ip), vehicle: saline with Tween-80.
[11] abbreviates: dose: 50.0 mg/kg/injection, schedule: Q01DX009 (ip), vehicle: saline with Tween-80.
Setting [12] is: dose: 100.0 mg/kg/injection, schedule: Q01DX009 (ip), vehicle: saline with Tween-80.

As for `COC1=CC=C2C3Cc4ccc(OC)c(O)c4C2(C1)CN3C` (stereo not given), the survivor count is, setting by setting: (dose: 12.5 mg/kg/injection, schedule: Q01DX009 (ip), vehicle: Klucel (hydroxypropylcellulose) (HPC)) 6 of 6; under setting [1], 4 of 6; under setting [2], 2 of 6.

Take `CN(CCCCN(C)CCOS(C)(=O)=O)CCOS(C)(=O)=O`: the survivor count under setting [3] was 0 of 6; the survivor count (dose: 200.0 mg/kg/injection, schedule: Q04DX003 (ip), vehicle: saline with Tween-80) is 0 of 6; the survivor count under setting [4] is reported as 0 of 6.

With `CCOC(=O)C1(C(=O)OCC)COC(C)(C)OC1`, the T/C was 130 % of control under setting [2] and 131 % of control (dose: 400.0 mg/kg/injection, schedule: Q04DX003 (ip), vehicle: saline).

In the case of `CCCCN=C(N)N=C(N)N`, the survivor count under setting [5] is 0 of 6.

Consider `CP(C)c1ccccc1`, for which the survivor count under setting [6] is recorded as 0 of 6.

Consider `COc1cccc(N2C(N)=NC(N)=NC2(C)C)c1`, for which the T/C (dose: 37.5 mg/kg/injection, schedule: Q01DX009 (ip), vehicle: Klucel (hydroxypropylcellulose) (HPC)) was 144 % of control.

On to `Nc1cc2c(c[n+](Cc3ccccc3)c3ccccc23)c2ccccc12`, for which, for the setting “dose: 1.56 mg/kg/injection, schedule: Q04DX003 (ip), vehicle: other”, the T/C was 125 % of control. Besides, the survivor count (dose: 6.25 mg/kg/injection, schedule: Q04DX003 (ip), vehicle: other) is on record as 6 of 6; the survivor count (dose: 12.5 mg/kg/injection, schedule: Q04DX003 (ip), vehicle: other) is reported as 3 of 6; the survivor count (dose: 25.0 mg/kg/injection, schedule: Q04DX003 (ip), vehicle: other) is on record as 0 of 6.

Turning to `C=CCC(CC)C(=O)O` (stereo not given), the survivor count under setting [5] is listed as 5 of 6.

As to `NC(Cc1ccc(O)cc1)C(=O)N/N=C/c1ccc(N(CCCl)CCCl)cc1` (stereo not given), where the note is “dose: 40.0 mg/kg/injection, schedule: Q04DX003 (ip), vehicle: Klucel (hydroxypropylcellulose) (HPC)”, the T/C was 129 and 138 % of control. Besides, the survivor count under setting [7] is listed as 5 of 6.

On to `N#CC(=C1C=CC(=NO)C=C1)c1ccc(Cl)cc1`, for which the survivor count is 2 of 6 under setting [8] and 0 of 6 (dose: 400.0 mg/kg/injection, schedule: Q01DX009 (ip), vehicle: Klucel (hydroxypropylcellulose) (HPC)).

As for `O=C(NC(=O)c1c(F)cccc1F)Nc1ccc(OCc2ccccc2)cc1`, the survivor count under setting [9] was 6 of 6.

Consider `C[N+](C)(Cn1nc(Cl)c2ccc([N+](=O)[O-])cc21)Cn1nc(Cl)c2ccc([N+](=O)[O-])cc21`, for which the survivor count under setting [4] is given as 1 of 6.

Consider `COC(=O)C12OCC34C(CC(C(C)=O)C(C)(CC(=O)O)C3C(O)C1O)OC(=O)C(OC(=O)/C=C(\C)C(C)C)C24` (stereo not given), for which the survivor count (dose: 1.0 mg/kg/injection, schedule: Q01DX009 (ip), vehicle: saline) was 6 of 6.

`COc1c(OC)c(OC)c2c(c1OC)c(=O)c1ccccc1n2C`: under “dose: 200.0 mg/kg/injection, schedule: Q01DX010 (ip), vehicle: carboxymethylcellulose (CMC)”, the T/C was 145 % of control [5 of 6 alive].

For `COc1cccc(N)c1N`, the T/C (dose: 100.0 mg/kg/injection, schedule: Q01DX009 (ip), vehicle: suspension in saline) was 127 % of control. The survivor count (dose: 400.0 mg/kg/injection, schedule: Q01DX009 (ip), vehicle: suspension in saline) is listed as 5 of 6.

Regarding `CCOC(=O)C1Cc2c([nH]c(=O)[nH]c2=O)OC1c1cccc(Cl)c1` (stereo not given), the T/C under setting [10] is 127 % of control.

For `CCCCN(C)C(=S)N/N=C(\C)c1ccccn1`, the survivor count under setting [11] is 3 of 6, the survivor count under setting [12] is 0 of 6 and the survivor count under setting [9] is reported as 0 of 6.

For the compound `C=C1C(=O)O[C@H]2C1[C@H](OC(=O)/C(C)=C\COC(C)=O)C[C@]1(CO1)[C@@H]1[C@H](O)[C@H]3O[C@@]3(C)[C@@H]12` (stereo not given in full), the T/C is 130 % of control (dose: 3.12 mg/kg/injection, schedule: Q01DX009 (ip), vehicle: other); 135 % of control (dose: 12.5 mg/kg/injection, schedule: Q01DX009 (ip), vehicle: other); 140 % of control (dose: 50.0 mg/kg/injection, schedule: Q01DX009 (ip), vehicle: other). Besides, the survivor count (dose: 100.0 mg/kg/injection, schedule: Q01DX009 (ip), vehicle: other) is 1 of 6.

As to `NC(=O)N/N=C/c1cccs1`, the survivor count under setting [10] is given as 6 of 6.

With `N#CSCc1ccc(Cl)c(CSC#N)c1`, the T/C is, setting by setting: (dose: 12.5 mg/kg/injection, schedule: Q04DX003 (ip), vehicle: Klucel (hydroxypropylcellulose) (HPC)) 130 % of control; (dose: 18.0 mg/kg/injection, schedule: Q01DX009 (ip), vehicle: Klucel (hydroxypropylcellulose) (HPC)) 130 % of control; (dose: 25.0 mg/kg/injection, schedule: Q01DX009 (ip), vehicle: Klucel (hydroxypropylcellulose) (HPC)) 130 % of control; (dose: 25.0 mg/kg/injection, schedule: Q04DX003 (ip), vehicle: Klucel (hydroxypropylcellulose) (HPC)) 135 % of control; (dose: 50.0 mg/kg/injection, schedule: Q04DX003 (ip), vehicle: Klucel (hydroxypropylcellulose) (HPC)) 135 % of control [4 of 6 alive]. Moreover, the survivor count reads like this: under setting [1], 2 of 6; (dose: 100.0 mg/kg/injection, schedule: Q04DX003 (ip), vehicle: Klucel (hydroxypropylcellulose) (HPC)) 1 of 6; under setting [6], 0 of 6; under setting [7], 1 of 6.

As for `CCn1cnc2c(SC)nc(N)nc21`, the survivor count runs as follows: under setting [1], 5 of 6; under setting [8], 6 of 6.

For `Brc1cnn2c1NCC2`, the survivor count (dose: 100.0 mg/kg/injection, schedule: Q04DX003 (ip), vehicle: water) is reported as 3 of 6; the survivor count (dose: 200.0 mg/kg/injection, schedule: Q04DX003 (ip), vehicle: water) is 5 of 6; the survivor count (dose: 400.0 mg/kg/injection, schedule: Q04DX003 (ip), vehicle: water) was 4 of 6.

For `Cc1nnc2c(Cl)nccn12`, for the setting “dose: 400.0 mg/kg/injection, schedule: Q01DX001 (ip), vehicle: saline with Tween-80”, the survivor count is reported as 0 of 6.

As to `O=c1oc(-c2ccccc2)nc2cc(Cl)ccc12`, the survivor count (dose: 25.0 mg/kg/injection, schedule: Q04DX003 (ip), vehicle: saline with Tween-80) is 6 of 6.

Take `CN=C(c1ccc(NC(=O)c2ccc(C(=O)Nc3ccc(C(=NC)N(C)C)cc3)cc2)cc1)N(C)C`: the survivor count is listed as 3 of 6 (dose: 8.0 mg/kg/injection, schedule: Q01DX010 (ip), vehicle: water) and 0 of 6 (dose: 16.0 mg/kg/injection, schedule: Q01DX010 (ip), vehicle: water).

In the case of `CC(/C=C/C1(C)C(C)CCC(=O)C1C)=C\Cc1c(O)c(Cl)c(C)c(C=O)c1O` (stereo not given), the survivor count by setting is: (dose: 50.0 mg/kg/injection, schedule: Q04DX003 (ip), vehicle: saline with Tween-80) 0 of 6; under setting [3], 0 of 6.

`CN(C)c1ccc(/C=C/c2ccccn2)cc1`: the survivor count under setting [11] is reported as 6 of 6.

Regarding `COc1ccc(S(=O)(=O)Nc2c([N+](=O)[O-])cc([N+](=O)[O-])c3ccccc23)cc1`, under setting [12], the survivor count is recorded as 3 of 6.

As for `CCOCc1cc([N+](=O)[O-])cc([N+](=O)[O-])c1O`, the survivor count under setting [11] is 1 of 6.

`O=C(CI)Nc1ccc(Br)cc1`: the survivor count reads like this: (dose: 52.5 mg/kg/injection, schedule: Q04DX003 (ip), vehicle: Klucel (hydroxypropylcellulose) (HPC)) 3 of 6; (dose: 105.0 mg/kg/injection, schedule: Q04DX003 (ip), vehicle: Klucel (hydroxypropylcellulose) (HPC)) 0 of 6.
